The target of this assay is T1, GST-tagged ACT domain of PHGDH (human) (UniProt O43175).
T1 sequence: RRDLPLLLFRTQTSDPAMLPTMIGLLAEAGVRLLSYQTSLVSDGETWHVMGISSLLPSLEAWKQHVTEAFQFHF
As to the kind of experiment: pull-down.

These are yes or no findings as the source states them, for the method shown. Binding calls can cover weak binding; strength is not graded here. Where a sequence is shown, tags or fusion partners need not be part of it.

Consider one substance from paper doi:10.1101/2021.10.17.464745.

“His-tagged cMyc protein (from UniProt P01106)”: the binding result is recorded as “binds”.
